Assay: IC50 of Table 2 (used for SI = IC50/MIC; test not described)
Settings: MIC against strain H37Rv

Compound | SI (IC50/MIC)
CCCc1cc(=O)oc2c3c(c4c(c12)OC(C)(C)C=C4)O[C@@H](C)[C@H](C)[C@H]3O [(−)-Calanolide A (2), (−)-Calanolide A] | >1.6
(+)-Calanolide A [(+)-Calanolide A (1)] | 2.43
